According to article PMC12727980:

Target: T1, GST-KH (Bicc1 KH domains) (UniProt Q99MQ1)
T1 sequence (Q99MQ1 whole entry, looked up): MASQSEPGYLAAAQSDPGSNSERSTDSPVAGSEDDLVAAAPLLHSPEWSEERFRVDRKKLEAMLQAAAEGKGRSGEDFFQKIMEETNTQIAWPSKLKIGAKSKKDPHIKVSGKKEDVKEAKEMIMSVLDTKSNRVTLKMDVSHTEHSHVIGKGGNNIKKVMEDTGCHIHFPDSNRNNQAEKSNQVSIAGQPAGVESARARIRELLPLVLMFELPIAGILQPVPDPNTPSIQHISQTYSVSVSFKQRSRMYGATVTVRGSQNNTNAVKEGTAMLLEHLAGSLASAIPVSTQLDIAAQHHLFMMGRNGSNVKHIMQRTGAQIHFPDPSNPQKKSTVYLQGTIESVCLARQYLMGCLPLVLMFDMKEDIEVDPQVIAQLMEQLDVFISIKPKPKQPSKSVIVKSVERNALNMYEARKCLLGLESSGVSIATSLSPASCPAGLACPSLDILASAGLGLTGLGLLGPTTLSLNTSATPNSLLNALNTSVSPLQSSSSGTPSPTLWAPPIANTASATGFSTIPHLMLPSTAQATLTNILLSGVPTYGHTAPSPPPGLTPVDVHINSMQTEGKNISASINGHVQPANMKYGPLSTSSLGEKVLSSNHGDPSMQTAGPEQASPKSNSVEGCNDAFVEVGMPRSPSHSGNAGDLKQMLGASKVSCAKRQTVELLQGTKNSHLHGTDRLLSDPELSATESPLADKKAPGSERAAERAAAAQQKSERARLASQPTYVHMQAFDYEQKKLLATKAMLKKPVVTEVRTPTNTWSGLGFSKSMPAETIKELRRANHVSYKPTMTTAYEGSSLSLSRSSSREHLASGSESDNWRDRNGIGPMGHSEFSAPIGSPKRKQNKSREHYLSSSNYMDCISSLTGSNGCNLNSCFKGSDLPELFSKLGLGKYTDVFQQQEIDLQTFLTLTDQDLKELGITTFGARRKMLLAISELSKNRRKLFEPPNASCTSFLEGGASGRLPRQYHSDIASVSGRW
Experiment: EMSA
Conditions: probe alone, no RNA, EMSA buffer 1X: 10 mM Tris-HCl pH 8.0, 100 mM KCl, 2.5 mM MgCl2, 2.5% glycerol (slightly below 1X in some mixes), about 1 mM DTT, 0.05 ug/uL yeast tRNA, 50 nM tagged RNA, recombinant protein, protein details: GST, single-stranded DNA

CGCACCATCTCGGTACGTG [Probe #2]: no binding (label: 5'-Dyomics 781).
CTGAGCCTGTTGCCCAGAC [Probe #1]: no binding (label: 5'-Dyomics 681).

For at least one entry, the source does not settle the construct or the ends of the probe. No signal at the amounts used counts as a negative.
